Assay [1] concerns the target T1, Mouse CatSperζ, V5-tagged (pCAG-mCatSperz-V5) (mouse) (UniProt Q9CQP8).
T1 sequence: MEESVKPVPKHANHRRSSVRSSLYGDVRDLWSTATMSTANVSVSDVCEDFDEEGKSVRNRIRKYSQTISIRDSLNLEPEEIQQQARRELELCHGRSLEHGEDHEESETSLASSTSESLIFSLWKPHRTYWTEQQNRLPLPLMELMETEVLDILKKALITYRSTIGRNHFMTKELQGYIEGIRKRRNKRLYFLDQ
As to the kind of experiment: co-IP; proteins co-expressed transiently in HEK293T cells; lysis in 1% Triton X-100 in PBS with protease inhibitors; supernatant incubated with anti-V5 agarose, anti-FLAG affinity gel or anti-HA magnetic beads at 4 °C overnight; washed three times with 1% Triton X-100 in PBS; immunoblot. A general note: A western blot detects proteins with antibodies after separation by electrophoresis.

Protein sequences, listed by entry. Tags and fused reporters are not part of them.
UniProt A8MZ26: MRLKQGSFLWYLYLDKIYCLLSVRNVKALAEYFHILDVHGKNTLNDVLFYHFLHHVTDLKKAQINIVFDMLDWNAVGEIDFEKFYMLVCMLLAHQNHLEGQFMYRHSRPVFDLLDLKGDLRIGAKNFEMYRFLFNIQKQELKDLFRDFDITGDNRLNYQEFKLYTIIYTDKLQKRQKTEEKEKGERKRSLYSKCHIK
UniProt Q9DAM2: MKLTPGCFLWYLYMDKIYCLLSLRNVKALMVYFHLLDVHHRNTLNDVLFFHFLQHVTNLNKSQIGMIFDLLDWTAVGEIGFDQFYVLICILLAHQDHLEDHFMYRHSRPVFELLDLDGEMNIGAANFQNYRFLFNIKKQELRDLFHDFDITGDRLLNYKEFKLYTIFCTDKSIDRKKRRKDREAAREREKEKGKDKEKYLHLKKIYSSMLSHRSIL

The target of assay [2] is T2, Human CatSperζ, V5-tagged (phCMV3-hCatSperz-V5) (human) (UniProt Q9NTU4).
T2 sequence: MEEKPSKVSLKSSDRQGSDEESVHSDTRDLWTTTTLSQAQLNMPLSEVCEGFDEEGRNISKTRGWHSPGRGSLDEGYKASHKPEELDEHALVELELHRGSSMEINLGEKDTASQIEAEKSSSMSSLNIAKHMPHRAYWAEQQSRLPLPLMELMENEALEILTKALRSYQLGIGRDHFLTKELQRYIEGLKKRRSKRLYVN
Described as above.

Results are given in words; binding and its absence hold for the method and conditions named. In cells and extracts the contact can be indirect. Some binding calls cover weakened binding; strength is not graded here. Sequences can lack the tags named with a protein.

Turning to “Human EFCAB9, HA-tagged (phCMV3-hEFCAB9-HA) (from UniProt A8MZ26 1-197)”, the binding result in assay [1] was “binds”. Take “Mouse EFCAB9, HA-tagged (phCMV3-mEFCAB9-HA) (from UniProt Q9DAM2 1-216)”: the binding entry in assay [2] is on record as “binds”.

(Values after paper PMC8147001.)
